A short description of the test: qHTS Assay for Lipid Storage Modulators in Drosophila S3 Cells.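 On cell number change: cells counted by Cell Tracker Red CMTPX staining in the red channel.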 Particulars: BODIPY lipid droplet fluorescence, 18-24 h; for cell number change: measured here: cell count max response, cells fed with added oleic acid. The essentials:
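Drosophila S3 cells loaded with oleic acid (400 uM, as added) and compounds at several concentrations; lipid droplets imaged by 488-nm laser-scanning cytometry, 500–530 nm intensity and object ratio to cell channel. Percent activity normalized to 20 uM Triacsin C.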

The mark [1] stands for this setting: measured here: cell number channel AC50, cells fed with added oleic acid.
Where [2] appears, read: measured here: lipid fluorescence (Fed channel) AC50, cells fed with added oleic acid.

The other results are listed elsewhere or left out. Further columns of the screen follow, without active or inactive calls. The list favours compounds with an active or inconclusive main result. Potencies come from curve fits of mixed quality, noted in brackets.

In the case of `Cc1nnc(Nc2ccc(C(=O)NCCO)cc2)c2ccccc12`, the cell number change was -7.92%. The AC50 under setting [1] was 0.116 µM [falling, single point].
`Cc1ccc(C(=O)NC(=S)NCC2CCCO2)cc1Br` (centres undefined): the cell number change worked out at 18.6%. Besides, the AC50 under setting [2] was 25.9 µM [rising, single point].
Take `COc1cc2c(cc1NC(=O)c1ccc3c(c1)OCO3)oc1ccccc12`: the cell number change was 5.08%. The concentration at half-maximal activity (AC50) under setting [1] is 4.11 µM [rising, single point]. The half-maximal activity concentration (AC50) under setting [2] was 6.51 µM [rising, single point].
Consider `Cc1cc(NS(=O)(=O)c2ccccc2)c([N+](=O)[O-])cc1C`, for which the cell number change turned out to be 28.6%. For the same compound, under setting [1], the concentration at half-maximal activity (AC50) was 3.26 µM [rising, full curve, poor fit]. Under setting [2], the half-maximal activity concentration (AC50) was 29.1 µM [rising, single point].
With `Cc1ccccc1Cn1ccc(NC(=O)c2nn(C)cc2[N+](=O)[O-])n1`, the cell number change was found to be 15.1%. In addition, under setting [2], the AC50 is 23.1 µM [rising, partial curve, poor fit].
As to `O=c1[nH]c(=O)n(Cc2ccccc2)c2nc(-c3ccc(C(F)(F)F)cc3)n(CCO)c12`, the cell number change was determined as 185%. Further, the AC50 under setting [1] was 29.1 µM [rising, single point]. Also, the AC50 under setting [2] is 29.1 µM [falling, single point].
On to `O=C(Cc1ccc(Cl)cc1)NNC(=O)c1ccco1`, for which the cell number change is -15.2%. The AC50 under setting [2] is 0.058 µM [falling, full curve, poor fit].
On to `COc1ccc(OC)c(C2C(C(=O)Nc3ccccc3OC)=C(C)Nc3nc(CCCO)nn32)c1` (centres undefined), for which the cell number change was -58.4%. Moreover, the AC50 under setting [1] was 29.1 µM [falling, single point]. Moreover, under setting [2], the AC50 was 0.206 µM [rising, full curve, poor fit].
On to `COc1cccc(/C=N/NC(=O)c2c(C)nc3ccc(Cl)cn23)c1O`, for which the cell number change was 21.6%. Moreover, the AC50 under setting [2] is 29.1 µM [rising, single point].
For `O=C1CSC(c2ccc([N+](=O)[O-])cc2)N1CCN1CCCCC1` (centres undefined), the cell number change is -4.78%. For the same compound, the AC50 under setting [2] is 0.517 µM [falling, single point].
Turning to `O=C(COc1ccccc1)Nc1ccc([N+](=O)[O-])cc1`, the cell number change amounted to 0.489%. Moreover, the concentration at half-maximal activity (AC50) under setting [2] was 29.1 µM [rising, single point].
Regarding `Cc1ccc(S(=O)(=O)c2cc3c(=O)n4cccc(C)c4nc3n(Cc3ccco3)c2=N)cc1C`, the cell number change is -14.6%.
Turning to `O=C1CCCN1CCCN1C(=O)N[C@@H](Cc2ccccc2)C1=O`, the cell number change is -23%. Under setting [1], the AC50 was 4.11 µM [falling, single point]. The AC50 under setting [2] was 0.731 µM [falling, full curve].
With `CCCCOc1ccc(-c2nnn(CC(=O)c3c[nH]c4ccccc34)n2)cc1`, the cell number change was -18.5%. Also, the AC50 under setting [2] was 0.103 µM [falling, full curve, poor fit].
`CC(C)(NO)/C(=N/O)c1cccs1`: the cell number change is -11.1%.
Same read-out and setting: in the case of `Cc1cnc(C(=O)OCC(=O)c2ccc(Cl)cc2)cn1` it was 40.3%.

The record behind these values is PubChem BioAssay AID2685 (National Center for Advancing Translational Sciences (NCATS), 2010).
